Data published in article PMC8936951.
These are yes or no findings as the source states them, for the method shown. Binding seen in cells or lysates may run through a third protein. Some entries that bind do so weakly or less than the wild type.

By UniProt entry, the sequences of proteins in these tests, tags left out.
UniProt P52332: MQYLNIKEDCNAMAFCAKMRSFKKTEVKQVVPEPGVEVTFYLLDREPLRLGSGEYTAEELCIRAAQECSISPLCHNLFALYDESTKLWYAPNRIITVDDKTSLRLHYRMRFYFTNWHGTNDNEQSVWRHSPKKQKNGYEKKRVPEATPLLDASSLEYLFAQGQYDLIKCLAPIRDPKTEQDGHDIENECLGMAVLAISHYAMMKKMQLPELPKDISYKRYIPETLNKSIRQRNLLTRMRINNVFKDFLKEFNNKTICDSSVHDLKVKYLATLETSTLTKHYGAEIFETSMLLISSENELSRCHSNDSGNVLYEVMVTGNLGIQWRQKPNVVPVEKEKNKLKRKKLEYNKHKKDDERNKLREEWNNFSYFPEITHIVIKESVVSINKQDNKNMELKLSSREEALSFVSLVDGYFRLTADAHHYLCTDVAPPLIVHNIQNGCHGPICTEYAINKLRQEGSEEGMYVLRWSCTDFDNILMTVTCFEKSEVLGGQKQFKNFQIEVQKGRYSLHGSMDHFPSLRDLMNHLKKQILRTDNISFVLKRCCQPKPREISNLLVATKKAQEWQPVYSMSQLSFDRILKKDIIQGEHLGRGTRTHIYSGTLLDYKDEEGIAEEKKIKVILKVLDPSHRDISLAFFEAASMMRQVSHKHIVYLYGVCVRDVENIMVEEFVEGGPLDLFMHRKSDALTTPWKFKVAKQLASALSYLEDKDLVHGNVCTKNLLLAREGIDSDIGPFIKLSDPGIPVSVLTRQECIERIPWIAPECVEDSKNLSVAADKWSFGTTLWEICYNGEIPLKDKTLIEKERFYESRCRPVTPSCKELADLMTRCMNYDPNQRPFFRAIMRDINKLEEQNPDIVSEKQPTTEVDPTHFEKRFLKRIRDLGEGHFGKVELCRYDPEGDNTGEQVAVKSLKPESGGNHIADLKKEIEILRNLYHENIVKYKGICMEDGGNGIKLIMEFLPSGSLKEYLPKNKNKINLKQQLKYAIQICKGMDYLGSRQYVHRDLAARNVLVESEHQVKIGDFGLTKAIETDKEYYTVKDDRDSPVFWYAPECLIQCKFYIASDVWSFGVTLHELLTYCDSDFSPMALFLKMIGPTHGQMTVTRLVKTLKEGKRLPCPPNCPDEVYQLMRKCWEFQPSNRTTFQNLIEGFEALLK
UniProt P29351: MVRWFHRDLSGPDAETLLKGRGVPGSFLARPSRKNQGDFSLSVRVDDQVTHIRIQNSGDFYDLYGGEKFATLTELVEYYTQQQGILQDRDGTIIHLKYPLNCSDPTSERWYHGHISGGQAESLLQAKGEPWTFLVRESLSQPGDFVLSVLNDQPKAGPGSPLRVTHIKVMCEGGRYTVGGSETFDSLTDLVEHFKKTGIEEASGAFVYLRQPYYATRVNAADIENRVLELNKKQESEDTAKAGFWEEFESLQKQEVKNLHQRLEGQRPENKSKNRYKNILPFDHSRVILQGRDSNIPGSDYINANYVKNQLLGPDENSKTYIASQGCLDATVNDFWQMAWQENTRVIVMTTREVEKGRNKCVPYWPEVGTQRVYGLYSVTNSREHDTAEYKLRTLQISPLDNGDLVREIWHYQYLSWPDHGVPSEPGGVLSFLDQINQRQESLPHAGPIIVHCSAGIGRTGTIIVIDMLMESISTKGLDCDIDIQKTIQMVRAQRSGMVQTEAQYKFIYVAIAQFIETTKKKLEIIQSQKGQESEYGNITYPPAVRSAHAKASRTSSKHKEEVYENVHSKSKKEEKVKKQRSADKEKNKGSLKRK

Columns and labels:
[1] = target: T1, Traf6 (mouse (endogenous in murine macrophages)) (UniProt P70196); assay: co-IP; immunoprecipitation with an anti-Traf6 antibody (or IgG control) from PirB^MΦKO macrophages with or without transfected WT PirB or Myc-tagged PirB^3Y-F; densitometric analysis of Shp1
T1 sequence: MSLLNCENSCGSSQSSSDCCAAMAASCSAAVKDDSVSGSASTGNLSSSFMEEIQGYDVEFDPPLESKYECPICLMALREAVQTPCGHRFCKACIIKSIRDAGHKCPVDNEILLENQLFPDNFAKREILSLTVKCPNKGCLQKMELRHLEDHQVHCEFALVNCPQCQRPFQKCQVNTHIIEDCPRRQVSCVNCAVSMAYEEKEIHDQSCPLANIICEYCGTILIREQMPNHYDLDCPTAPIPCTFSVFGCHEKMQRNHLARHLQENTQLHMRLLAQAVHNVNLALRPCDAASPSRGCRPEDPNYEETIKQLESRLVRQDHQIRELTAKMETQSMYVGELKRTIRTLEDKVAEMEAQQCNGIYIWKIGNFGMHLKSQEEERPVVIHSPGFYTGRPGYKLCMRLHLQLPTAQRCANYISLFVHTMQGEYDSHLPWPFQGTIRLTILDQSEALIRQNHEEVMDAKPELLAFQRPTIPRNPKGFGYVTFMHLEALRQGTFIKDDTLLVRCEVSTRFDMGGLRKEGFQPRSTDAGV

[2] = target: Jak1 (mouse (endogenous in murine macrophages)) (UniProt P52332); assay: co-IP; immunoprecipitation with an anti-Jak1 antibody (or IgG control) from PirB^MΦKO macrophages with or without transfected WT PirB or Myc-tagged PirB^3Y-F, exposed to acLDL for 24 h; densitometric analysis of Shp1
[3] = target: T2, paired immunoglobulin-like receptor B (PirB) (mouse (endogenous in murine macrophages)) (UniProt P97484); assay: co-IP; anti-PirB immunoprecipitation from PirB^flox macrophages, p-Shp1 detected; PirB^MΦKO macrophages as control
T2 sequence: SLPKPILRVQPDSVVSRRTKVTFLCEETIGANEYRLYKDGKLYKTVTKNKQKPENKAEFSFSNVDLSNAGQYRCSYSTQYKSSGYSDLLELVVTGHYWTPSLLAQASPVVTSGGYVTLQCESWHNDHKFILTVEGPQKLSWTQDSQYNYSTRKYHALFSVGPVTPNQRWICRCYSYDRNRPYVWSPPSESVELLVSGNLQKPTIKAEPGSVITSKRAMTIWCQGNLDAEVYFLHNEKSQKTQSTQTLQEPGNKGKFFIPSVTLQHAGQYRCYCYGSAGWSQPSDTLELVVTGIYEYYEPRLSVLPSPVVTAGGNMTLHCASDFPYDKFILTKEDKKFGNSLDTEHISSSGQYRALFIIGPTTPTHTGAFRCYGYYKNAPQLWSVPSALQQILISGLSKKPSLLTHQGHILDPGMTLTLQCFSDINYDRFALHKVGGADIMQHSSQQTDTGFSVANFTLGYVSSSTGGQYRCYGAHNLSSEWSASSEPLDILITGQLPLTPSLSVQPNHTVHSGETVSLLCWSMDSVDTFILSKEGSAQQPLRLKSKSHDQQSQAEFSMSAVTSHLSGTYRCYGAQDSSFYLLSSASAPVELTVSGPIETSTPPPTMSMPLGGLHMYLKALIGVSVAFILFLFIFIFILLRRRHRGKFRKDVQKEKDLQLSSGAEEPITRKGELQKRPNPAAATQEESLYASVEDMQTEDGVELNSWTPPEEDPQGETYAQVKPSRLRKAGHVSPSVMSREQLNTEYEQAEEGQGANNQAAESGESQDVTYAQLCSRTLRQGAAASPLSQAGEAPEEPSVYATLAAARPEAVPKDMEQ

binding [1] | binding [2] | binding [3] | Substance
binds | binds | – | Src homology 2 domain-containing phosphatase 1 (Shp1) (from UniProt P29351 1-595) (enzyme)
– | – | binds | phosphorylated Src homology 2 domain-containing phosphatase 1 (p-Shp1) (from UniProt P29351 1-595) (enzyme)
